Measurements as given in patent publication US20040234956A1 (OREGON HEALTH AND SCIENCE UNIVERSITY, published 2004).

Molecular target: T1, APOBEC3G-Myc fusion protein (human, UniProt Q9HC16 1-384)
T1 construct: Human APOBEC3G coding region cloned from H9 cells into pcDNA3.1/Myc-His C; It was expressed in 293T/COS7 cells and used in cell extracts or adsorbed on Ni-NTA agarose; also called APOBEC3G-Myc-His
Assay: co-immunoprecipitation with 9E10 anti-Myc, Vif immunoblot

B1: Vif(Δ10) deletion mutant (other)
chain: MENRWQVMIVWQVDRMRINTWKRLVKHHMYISRKAKDWFYRHHYESTNPKISSEVHIPLGDAKLVITTYWGLHTGERDWHLGQGVSIEWRKKRYSTQVDPDLADQLIHLHAAVSPRCEYQAGHNKVGSLQYLALAALIKPKQIKPPLPSVRKLTEDRWNKPQKTKGHRGSHTMNGH
notes: also called Vif(?10)
  binding result: no binding
